Laboratory results published in patent US5846743A, “Polyphoshoinositide binding peptides for intracellular drug delivery” (Brigham and Women's Hospital, Inc., priority 1996, dated 1998).
Part of at least one peptide drawing is inferred or uncertain, most often the ends. Where a SMILES comes first, the peptide text is derived from it. The star is where a group is joined. RhodamineB = CCN(CC)c1ccc2c(-c3ccccc3C(=O)*)c3ccc(=[N+](CC)CC)cc-3oc2c1

Test system: human blood platelets
Experiment: Shear modulus of platelet rich plasma (PRP) clot during gel formation
Type: cell-based
Settings: added to PRP; rhodamine-GS160-169 at 20 μM (FIG. 2)

With CCN(CC)c1ccc2c(-c3ccccc3C(=O)N[C@@H](CCC(N)=O)C(=O)N[C@@H](CCCNC(=N)N)C(=O)N[C@@H](CC(C)C)C(=O)N[C@@H](Cc3ccccc3)C(=O)N[C@@H](CCC(N)=O)C(=O)N[C@H](C(=O)N[C@@H](CCCCN)C(=O)NCC(=O)N[C@@H](CCCNC(=N)N)C(=O)N[C@@H](CCCNC(=N)N)C(=O)O)C(C)C)c3ccc(=[N+](CC)CC)cc-3oc2c1 [rhodamine-Sequence I.D. No. 2] (RhodamineB-QRLFQVKGRR-OH) as the molecule, how does the “effect on clot shear modulus G' / platelet function” value read?
The value was “same relatively low shear modulus as a PPP clot”.
